# Experimental data: paper PMC12124498
# Sequences of proteins named here, by UniProt entry; tags and fusion partners are left off.
# UniProt P26368: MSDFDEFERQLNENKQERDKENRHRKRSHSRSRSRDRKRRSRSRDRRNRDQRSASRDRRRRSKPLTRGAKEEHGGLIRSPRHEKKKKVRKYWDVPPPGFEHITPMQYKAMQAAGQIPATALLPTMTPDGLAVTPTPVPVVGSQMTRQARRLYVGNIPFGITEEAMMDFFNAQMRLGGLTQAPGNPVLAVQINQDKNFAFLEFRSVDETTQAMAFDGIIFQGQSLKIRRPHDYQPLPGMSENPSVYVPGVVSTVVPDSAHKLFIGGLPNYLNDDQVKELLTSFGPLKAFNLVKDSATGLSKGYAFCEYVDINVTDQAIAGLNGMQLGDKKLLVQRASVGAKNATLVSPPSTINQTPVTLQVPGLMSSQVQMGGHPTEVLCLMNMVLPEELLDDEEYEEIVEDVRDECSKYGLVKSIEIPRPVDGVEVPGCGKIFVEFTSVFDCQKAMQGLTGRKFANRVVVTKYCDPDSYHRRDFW
# Results are given in words; binding and its absence hold for the method and conditions named. In cells and extracts the contact can be indirect. A yes stands for co-enrichment or nearness to the bait. Other partners may have been found.
# B1: TBCA (protein, UniProt O75347 1-108)
# chain: MADPRVRQIKIKTGVVKRLVKEKVMYEKEAKQQEEKIEKMRAEDGENYDIKKQAEILQESRMMIPDCQRRLEAAYLDLQRILENEKDLEEAEEYKEARLVLDSVKLEA
# B2: TXNL1 (protein, UniProt O43396 1-289)
# chain: MVGVKPVGSDPDFQPELSGAGSRLAVVKFTMRGCGPCLRIAPAFSSMSNKYPQAVFLEVDVHQCQGTAATNNISATPTFLFFRNKVRIDQYQGADAVGLEEKIKQHLENDPGSNEDTDIPKGYMDLMPFINKAGCECLNESDEHGFDNCLRKDTTFLESDCDEQLLITVAFNQPVKLYSMKFQGPDNGQGPKYVKIFINLPRSMDFEEAERSEPTQALELTEDDIKEDGIVPLRYVKFQNVNSVTIFVQSNQGEEETTRISYFTFIGTPVQATNMNDFKRVVGKKGESH
# B3: SMIM20 (protein, UniProt Q8N5G0 1-67)
# chain: MSRNLRTALIFGGFISLIGAAFYPIYFRPLMRLEEYKKEQAINRAGIVQEDVQPPGLKVWSDPFGRK
# B4: UBL5 (protein, UniProt Q9BZL1 1-73)
# chain: MIEVVCNDRLGKKVRVKCNTDDTIGDLKKLIAAQTGTRWNKIVLKKWYTIFKDHVSLGDYEIHDGMNLELYYQ
# B5: CCAR1 (protein, UniProt Q8IX12 1-1150)
# chain: MAQFGGQKNPPWATQFTATAVSQPAALGVQQPSLLGASPTIYTQQTALAAAGLTTQTPANYQLTQTAALQQQAAAAAAALQQQYSQPQQALYSVQQQLQQPQQTLLTQPAVALPTSLSLSTPQPTAQITVSYPTPRSSQQQTQPQKQRVFTGVVTKLHDTFGFVDEDVFFQLSAVKGKTPQVGDRVLVEATYNPNMPFKWNAQRIQTLPNQNQSQTQPLLKTPPAVLQPIAPQTTFGVQTQPQPQSLLQAQISAASITPLLQTQPQPLLQQPQQKAGLLQPPVRIVSQPQPARRLDPPSRFSGRNDRGDQVPNRKDDRSRERERERRRSRERSPQRKRSRERSPRRERERSPRRVRRVVPRYTVQFSKFSLDCPSCDMMELRRRYQNLYIPSDFFDAQFTWVDAFPLSRPFQLGNYCNFYVMHREVESLEKNMAILDPPDADHLYSAKVMLMASPSMEDLYHKSCALAEDPQELRDGFQHPARLVKFLVGMKGKDEAMAIGGHWSPSLDGPDPEKDPSVLIKTAIRCCKALTGIDLSVCTQWYRFAEIRYHRPEETHKGRTVPAHVETVVLFFPDVWHCLPTRSEWETLSRGYKQQLVEKLQGERKEADGEQDEEEKDDGEAKEISTPTHWSKLDPKTMKVNDLRKELESRALSSKGLKSQLIARLTKQLKVEEQKEEQKELEKSEKEEDEDDDRKSEDDKEEEERKRQEEIERQRRERRYILPDEPAIIVHPNWAAKSGKFDCSIMSLSVLLDYRLEDNKEHSFEVSLFAELFNEMLQRDFGVRIYKSLLSLPEKEDKKEKDKKSKKDERKDKKEERDDETDEPKPKRRKSGDDKDKKEDRDERKKEDKRKDDSKDDDETEEDNNQDEYDPMEAEEAEDEEDDRDEEEMTKRDDKRDINRYCKERPSKDKEKEKTQMITINRDLLMAFVYFDQSHCGYLLEKDLEEILYTLGLHLSRAQVKKLLNKVVLRESCFYRKLTDTSKDEENHEESESLQEDMLGNRLLLPTPTVKQESKDVEENVGLIVYNGAMVDVGSLLQKLEKSEKVRAEVEQKLQLLEEKTDEDEKTILNLENSNKSLSGELREVKKDLSQLQENLKISENMNLQFENQMNKTIRNLSTVMDEIHTVLKKDNVKNEDKDQKSKENGASV
# B6: SARNP (protein, UniProt P82979 1-210)
# chain: MATETVELHKLKLAELKQECLARGLETKGIKQDLIHRLQAYLEEHAEEEANEEDVLGDETEEEETKPIELPVKEEEPPEKTVDVAAEKKVVKITSEIPQTERMQKRAERFNVPVSLESKKAARAARFGISSVPTKGLSSDNKPMVNLDKLKERAQRFGLNVSSISRKSEDDEKLKKRKERFGIVTSSAGTGTTEDTEAKKRKRAERFGIA
# Target: U2AF2-TurboID-HA (human) (UniProt P26368)
# Assay: proximity labelling; U2AF2-TurboID-HA induced with doxycycline for 4 h in mesoderm cells differentiated from hiPSC (CHIR99021, 24 h); biotinylated proteins purified on streptavidin magnetic beads, LC-MS with label-free quantification; hits: Log2ΔLFQ >= 2 and p <= 0.05, mesoderm against pluripotent U2AF2-TurboID samples or against GFP-TurboID
row,binding,Binder
1,binds,B1
2,binds,B2
3,binds,B3
4,binds,B4
5,binds,B5
6,binds,B6
